Library screening results

A: 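Whole-cell assay for inhibitors of Mycobacterium tuberculosis growth, labelled Cornell in the record; the read-out is not stated. The concentration is filed as 10 mM, unlikely as a test dose, so the dose is not known. Higher means stronger inhibition (inferred from two other growth screens of the library). Of about 53,000 compounds tested this way, about 900 (1.7%) reached 50% or more in at least one test.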
B: 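Assay on Mycobacterium tuberculosis, filed only as a heat shock assay from Cornell; the read-out is not stated. The concentration is filed as 10 mM, unlikely as a test dose, so the dose is not known. Higher reads as stronger inhibition (inferred: compounds with an IC50 in retests scored well above the rest). Of about 69,000 compounds tested this way, about 930 (1.4%) reached 50% or more in at least one test.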

The filed quantity is “Percent Effect” (%).
How 0% and 100% were set is not recorded. Most values in the screen are low, and negative values occur.
This is an unselected part of the compounds tested.
A dash means the value is not listed here; it may have been measured.

compound | A | B
Cn1cc(CN2CCCN(C(=O)c3cc(Cl)cn3C)CC2)cn1 | - | -2.88
O=C(NCc1cccc(F)c1)NC1CCCN(c2ncccn2)C1 (centres unmarked) | -38.59 | 16
CC(C)N(Cc1cccnc1)C(=O)CCSc1ccc(C#N)cc1 | - | 3.063
COCCN(C)CCN1CC2(CCN(C3CCOCC3)CC2)OC1=O | 7.437 | -14.29
COCCN1CCC2(CCCN(c3ncccn3)C2)C1.O=C(O)C(F)(F)F (centres unmarked) | - | -80.98
Cn1nc(CN2CCCCC2)c2c1CN(C(=O)c1cccc(C#N)c1)C2.O=C(O)C(F)(F)F | - | -14.41
O=C(c1ccc(S(=O)(=O)N2CCNCC2)cc1)N1CCCC(O)C1 (centres unmarked) | -3.132 | -4.519
O=C(NCc1nn(-c2ccccc2)c2c1CCC2)N1CCSCC1 | 4.803 | 1.815
CC(NC(=O)NCC(F)(F)F)c1nncn1C (centres unmarked) | -31.62 | -1.848
CC(C)c1ccc(CN2CCC3(CCCN(c4nncs4)C3)C2)cc1.O=C(O)C(F)(F)F (centres unmarked) | 26.39 | 25.48
CC1(C)COCCN1C(=O)CCc1nc(-c2ccncc2)no1 | -20.37 | -14.13
Cc1ccc(CNC(CN2CCN(C)CC2)c2ccccc2)cc1 (centres unmarked) | 16.4 | 5.608
O=C(c1ccc[nH]1)N1CCCn2c(nnc2Cn2cccn2)C1 | -18.9 | 35.47
O=C(NCc1nc(C2CCCCC2)no1)C1CC(=O)N(C2CC2)C1 (centres unmarked) | -6.222 | -22.31
CCC(NC(N)=O)c1ccccc1OCC(=O)N1CCCC1 (centres unmarked) | -65.24 | 27.15
CCNC(=O)N1CCCCC1CCO (centres unmarked) | - | -1.14
O=C(O)C(F)(F)F.[H][C@@]12OCCN(Cc3ccoc3)[C@@]1([H])CC[C@H]2OCC | -0.009648 | 1.857
NC(=O)CN1CCN(c2ccnc3c(F)ccc(F)c23)CC1 | -5.027 | -14.29
Cc1ccc(C(=O)NC(CN2CCCC2)c2ccccc2)c(=O)[nH]1 (centres unmarked) | -29.27 | 30
COc1cc(Cl)c(NC(=O)c2cc3c([nH]c2=O)CCCC3=O)cc1OC | -2.998 | -6.479
Cc1ccnc(C2CN(c3ccnc(C)n3)C2)n1 | -5.612 | -15.18
CNc1ncc(CN(C)C(=O)c2ccccc2C2CCNC2)cn1 (centres unmarked) | -4.455 | -33.98
O=C(O)C(F)(F)F.O=c1cc(CNS(=O)(=O)C2CC2)nc2n1CCCN(CC1CC1)C2 | 4.733 | 21.63
CCn1cc(CN2CCCN(C(=O)c3sc(C)nc3C)CC2)cn1 | - | -13.71
O=c1[nH]nc(CNc2ncc(Cl)cn2)[nH]1 | -7.043 | -18.33
COc1ccc(C(C#N)NC(=O)CC2=CCCCC2)c(OC)c1 (centres unmarked) | - | 26.22
Cn1cnc(S(=O)(=O)N2CCN(Cc3ccco3)CC2)c1Cl | 15.91 | 1.734
CC1CCN(CCNC(=O)c2ccn(-c3ccc(F)cc3)n2)CC1 | - | 4.043
COCCC1(CO)CCCN(C(=O)c2cccnc2O)C1 (centres unmarked) | 6.291 | 3.781
O=C(NCCC(=O)N1CCCC1)c1ccc(SCc2cccnc2)cc1 | 35.93 | 8.92
Cc1cc(OC(F)F)c(C(=O)N2CCC(N(C)C)CC2)s1 | -15.2 | -14.3
Cc1cccc(C(=O)N2CC(=O)N(c3ccccc3Cl)CC2C)n1 (centres unmarked) | - | -24.39
N#Cc1ccc(N2CCCN(CC(N)=O)CC2)cc1 | - | -1.984
NC(=O)NCC1CCCCN1C(=O)c1cccc(C(F)(F)F)c1 (centres unmarked) | 16.9 | -9.574
Cc1cnn(C2CCCN(C(=O)c3cc4nc(C)ccc4o3)C2)c1 (centres unmarked) | - | -0.8282
CN1CCN(Cc2cccnc2)C2(CCN(Cc3ccccn3)C2)C1=O.O=C(O)C(F)(F)F.O=C(O)C(F)(F)F.O=C(O)C(F)(F)F (centres unmarked) | 42.16 | -39.14
F[C@@H]1CN(Cc2ccccc2)C[C@@H]1OCc1nc2ccccc2[nH]1 | -5.232 | -10.6
O=C(c1ccncc1)N1CCc2onc(CN3CCCC3)c2C1 | -33.15 | -6.088
Cc1cc(CN2CCN(Cc3ccc(C#N)cc3OC(F)F)CC2)no1 | -23.61 | -12.38
Cc1cccc(=O)n1CCCNc1nc(N(C)C)nc2c1CCNCC2 | - | -8.275
O=C(Nc1cccnc1-n1cc(Cl)cn1)C1CCCCC1 | 14.76 | 5.616
CCN1CCC12CCN(C(=O)c1ccsc1)C2.O=C(O)C(F)(F)F (centres unmarked) | 25.84 | -6.668
COCc1noc(CNc2nc(C3CCCC3)nc3c2CCNCC3)n1 | 31.44 | -11.32
CCN1CCCC(O)(CN(C)Cc2c(C)nn(C)c2C)C1 (centres unmarked) | 11 | 0.4768
CN(Cc1nccn1C)S(=O)(=O)N1CCCC1c1ccco1 (centres unmarked) | 8.702 | -5.882
COc1ccccc1CN(CC1CCCO1)C(=O)c1csnn1 (centres unmarked) | - | -11.55
O=C(NCc1ccc(OCC2CC2)nc1)c1c(F)cccc1F | 9.895 | -24.43
O=C(O)C(F)(F)F.O=C(O)C(F)(F)F.O=C(O)C(F)(F)F.[H][C@@]12COC[C@]1(COc1cccnc1)CN(Cc1cccc(C)n1)C2 | 25.27 | -8.53
CCN1CCC2(COCc3cnc(-c4cccnc4)nc32)C1 (centres unmarked) | 24.59 | -5.625
CN(C)C1CC2(CCN(C(=O)C3(C#N)CC3)CC2)c2ccccc21.O=C(O)C(F)(F)F (centres unmarked) | -7.274 | 6.068
CN(C)CCOCC1CN(CCN(C)C)Cc2ccnn2C1 (centres unmarked) | -2.469 | -26.71
C[S+]([O-])CCNC(=O)N1CCSC2(CCCCC2)C1 (centres unmarked) | -18.33 | -0.5114
CN1CCC2(CCN(C(=O)c3cccnc3)C2)C1 (centres unmarked) | -1.804 | 35.27
CNCC[C@H]1CC(C)(C)Oc2ccc(OCC3CC3)cc21 | -8.843 | -12.82
O=c1c(S(=O)(=O)N2CCCC2)cccn1Cc1ccc(F)cc1Cl | 4.207 | -9.869
CC(C)N(C)CCC(=O)N1CCCC(c2ccc(C(=O)O)cc2)C1 (centres unmarked) | -0.1318 | -7.008
COc1c(C)cnc(CN2CCCC2c2noc(C3CC3)n2)c1C (centres unmarked) | -12.88 | -0.8434
CCN(CC(=O)Nc1cc(Cl)ccc1C)C(=O)c1ccncc1 | 2.276 | 4.445
O=C(CC1CC1)N1Cc2nccn2CC(COc2cccnc2)C1 (centres unmarked) | 36.06 | -18.89
CN(Cc1ccc2c(c1)OCCO2)c1ncc(S(N)(=O)=O)s1 | - | -99.24
CN(C(=O)c1ccc(NC(=O)c2cc[nH]n2)cc1)C1CCCCC1 | - | 0.2931
COCCCN(Cc1ccccc1Cl)C1CCS(=O)(=O)C1 (centres unmarked) | -9.457 | -18.37
COc1ccc(-n2ccc(C(=O)N3CCN(C)CC3C)n2)cc1 (centres unmarked) | 10.31 | -17.14
Cc1noc(C)c1CN(C)Cc1csc(-c2ccc(F)cc2)n1 | 39.26 | 3.925
CCc1ncc2c(n1)CN(C(=O)CC(C)NC(C)=O)C2 (centres unmarked) | -9.404 | -7.72
COc1ccccc1S(=O)(=O)N1CCC2(CC1)[C@H](O)C[C@@H]2O | -57.71 | -5.85
CC(C)Oc1cccc(CNC(Cc2ccsc2)c2nccs2)c1.Cl (centres unmarked) | 19.59 | 2.523
O=C(O)C(F)(F)F.[H][C@@]12C[C@H](C(=O)NC3CCCC3)CN(Cc3ccoc3)[C@]1([H])CCO2 | -11.13 | -1.117
CCc1ccc(S(=O)(=O)NCCOc2ccc3nnc(C)n3n2)s1 | 5.389 | 16.64
O=C(O)C(F)(F)F.O=C(O)C(F)(F)F.[H][C@]12CC(=O)N(Cc3cccc(C)n3)[C@@]1([H])CCN2Cc1ccc(F)cc1 | 15.09 | -4.818
Cc1nn(CC(=O)N2CCN(c3ncccn3)CC2)c(C)c1Cl | -20.77 | 0
O=C1CCC2(CCCN(C(=O)C3CCCC3)C2)CN1CCc1c[nH]cn1 (centres unmarked) | 12.2 | -13.56
COc1cccc([C@H]2CN(C(=O)c3scc4c3CCCC4)C[C@@H]2N)c1 | 3.171 | 24.12
Cc1cccc(CN2CCn3c(COc4ncccn4)nnc3C2)n1 | 9.223 | -2.821
COc1cc(Cl)ccc1C(=O)NCc1nncn1C | -44.99 | -11.86

The first 5 entries again:

compound,A,B
Cn1cc(CN2CCCN(C(=O)c3cc(Cl)cn3C)CC2)cn1,-,-2.88
O=C(NCc1cccc(F)c1)NC1CCCN(c2ncccn2)C1 (centres unmarked),-38.59,16
CC(C)N(Cc1cccnc1)C(=O)CCSc1ccc(C#N)cc1,-,3.063
COCCN(C)CCN1CC2(CCN(C3CCOCC3)CC2)OC1=O,7.437,-14.29
COCCN1CCC2(CCCN(c3ncccn3)C2)C1.O=C(O)C(F)(F)F (centres unmarked),-,-80.98

Measurements from “University of Dundee, Small-Polar-MMV Screening Library” (2021), ChEMBL document CHEMBL3988442.